Results on three molecules are retold here after article doi:10.1101/2024.08.01.24310552.

Results are given in words; binding and its absence hold for the method and conditions named. In cells and extracts the contact can be indirect. Binding can be weak; no strength is given. Tags and fused reporters may be left off the sequences shown.

Assay [1] has as its target HA-tagged NXT2 (wildtype, long isoform NM_018698.5) (human). The assay is described as follows: co-IP.
The target in assay [2] is C-terminally truncated NXT2, lacking the last six amino acids (human). Kind of assay: co-IP.

B1: FLAG-tagged NXF2 (wildtype) (protein, UniProt Q9GZY0 1-626)
chain: MCSTLKKCGTYRTEVAECHDHGSTFQGRKKGGSSFRDNFDKRSCHYEHGGYERPPSHCQENDGSVEMRDVHKDQQLRHTPYSIRCERRMKWHSEDEIRITTWRNRKPPERKMSQNTQDGYTRNWFKVTIPYGIKYDKAWLMNSIQSHCSDRFTPVDFHYVRNRACFFVQDASAASALKDVSYKIYDDENQKICIFVNHSTAPYSVKNKLKPGQMEMLKLTMNKRYNVSQQALDLQNLRFDPDLMGRDIDIILNRRNCMAATLKIIERNFPELLSLNLCNNKLYQLDGLSDITEKAPKVKTLNLSKNKLESAWELGKVKGLKLEELWLEGNPLCSTFSDQSAYVSAIRDCFPKLLRLDGRELSAPVIVDIDSSETMKPCKENFTGSETLKHLVLQFLQQYYSIYDSGDRQGLLGAYHDEACFSLAIPFDPKDSAPSSLCKYFEDSRNMKTLKDPYLKGELLRRTKRDIVDSLSALPKTQHDLSSILVDVWCQTERMLCFSVNGVFKEVEGQSQGSVLAFTRTFIATPGSSSSLCIVNDELFVRDASPQETQSAFSIPVSTLSSSSEPSLSQEQQEMVQAFSAQSGMKLEWSQKCLQDNEWNYTRAGQAFTMLQTEGKIPAEAFKQIS
Consider B1, for which the binding entry in assay [1] and in assay [2] was “binds” throughout.

B2: NXF3 stop-gain variant c.826G>T p.(Gly276*), truncated protein (domain or fragment, UniProt Q9H4D5-1 1-275)
chain: MSLPSGHTTGHTDQVVQRRARCWDIYQRRFSSRSEPVNPGMHSSSHQQQDGDAAMHGAHMDSPVRYTPYTISPYNRKGSFRKQDQTHVNMEREQKPPERRMEGNMPDGTLGSWFKITVPFGIKYNEKWLLNLIQNECSVPFVPVEFHYENMHASFFVENASIAYALKNVSGKIWDEDNEKISIFVNPAGIPHFVHRELKSEKVEQIKLAMNQQCDVSQEALDIQRLPFYPDMVNRDTKMASNPRKCMAASLDVHEENIPTVMSAGEMDKWKGIEP
In the case of B2, in assay [1], the binding entry is recorded as “no binding”.

B3: FLAG-tagged NXF3 (wildtype) (protein, UniProt Q9H4D5-1 1-531)
chain: MSLPSGHTTGHTDQVVQRRARCWDIYQRRFSSRSEPVNPGMHSSSHQQQDGDAAMHGAHMDSPVRYTPYTISPYNRKGSFRKQDQTHVNMEREQKPPERRMEGNMPDGTLGSWFKITVPFGIKYNEKWLLNLIQNECSVPFVPVEFHYENMHASFFVENASIAYALKNVSGKIWDEDNEKISIFVNPAGIPHFVHRELKSEKVEQIKLAMNQQCDVSQEALDIQRLPFYPDMVNRDTKMASNPRKCMAASLDVHEENIPTVMSAGEMDKWKGIEPGEKCADRSPVCTTFSDTSSNINSILELFPKLLCLDGQQSPRATLCGTEAHKRLPTCKGSFFGSEMLKNLVLQFLQQYYLIYDSGDRQGLLSAYHDEACFSLSIPFNPEDSAPSSFCKFFKDSRNIKILKDPYLRGELLKHTKLDIVDSLSALPKTQHDLSSFLVDMWYQTEWMLCFSVNGVFKEVEGQSQGSVLAFTRTFIATPGSSSSLCIVNDKLFVRDTSHQGTQSALFTLVPTAFSSSVPAFSQEQQKMLPS
For the molecule B3, the binding entry in assay [1] and in assay [2] was “binds” each time.
